Measured values taken from publication doi:10.1101/2024.10.16.24315096.
These are yes or no findings as the source states them, for the method shown. In cells and extracts the contact can be indirect. Some binding calls cover weakened binding; strength is not graded here. For some assays here: Tags and fused reporters may be left off the sequences shown.

What was measured:
[1] = target: FilGAP wild-type (Filamin A binding RhoGTPase-activating protein, encoded by ARHGAP24) (human) (UniProt Q8N264); assay: co-IP
[2] = target: T1, FilGAP p.Gln671Ter, HA-tagged (human) (UniProt Q8N264); assay: co-IP
T1 sequence: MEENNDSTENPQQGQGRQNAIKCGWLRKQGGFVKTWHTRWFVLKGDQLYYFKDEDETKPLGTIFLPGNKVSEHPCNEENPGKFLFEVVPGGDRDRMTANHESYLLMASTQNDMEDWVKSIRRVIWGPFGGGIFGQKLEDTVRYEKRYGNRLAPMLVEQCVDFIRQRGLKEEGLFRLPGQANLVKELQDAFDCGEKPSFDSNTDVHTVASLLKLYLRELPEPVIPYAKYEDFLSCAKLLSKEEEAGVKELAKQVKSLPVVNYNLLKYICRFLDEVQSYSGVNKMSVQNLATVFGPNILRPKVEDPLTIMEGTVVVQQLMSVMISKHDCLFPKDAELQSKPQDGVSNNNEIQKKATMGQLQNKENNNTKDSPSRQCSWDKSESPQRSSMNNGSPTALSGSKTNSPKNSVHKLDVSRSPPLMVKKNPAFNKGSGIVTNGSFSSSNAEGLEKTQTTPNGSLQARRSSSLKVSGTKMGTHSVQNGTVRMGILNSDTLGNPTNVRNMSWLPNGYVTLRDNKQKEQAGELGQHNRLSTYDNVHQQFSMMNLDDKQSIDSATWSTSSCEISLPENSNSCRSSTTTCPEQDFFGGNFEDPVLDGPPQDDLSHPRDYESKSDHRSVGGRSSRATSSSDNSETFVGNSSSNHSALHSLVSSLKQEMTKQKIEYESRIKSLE

B1: FilGAP wild-type (Filamin A binding RhoGTPase-activating protein, encoded by ARHGAP24) (protein, UniProt Q8N264-1 1-748)
chain: MEENNDSTENPQQGQGRQNAIKCGWLRKQGGFVKTWHTRWFVLKGDQLYYFKDEDETKPLGTIFLPGNKVSEHPCNEENPGKFLFEVVPGGDRDRMTANHESYLLMASTQNDMEDWVKSIRRVIWGPFGGGIFGQKLEDTVRYEKRYGNRLAPMLVEQCVDFIRQRGLKEEGLFRLPGQANLVKELQDAFDCGEKPSFDSNTDVHTVASLLKLYLRELPEPVIPYAKYEDFLSCAKLLSKEEEAGVKELAKQVKSLPVVNYNLLKYICRFLDEVQSYSGVNKMSVQNLATVFGPNILRPKVEDPLTIMEGTVVVQQLMSVMISKHDCLFPKDAELQSKPQDGVSNNNEIQKKATMGQLQNKENNNTKDSPSRQCSWDKSESPQRSSMNNGSPTALSGSKTNSPKNSVHKLDVSRSPPLMVKKNPAFNKGSGIVTNGSFSSSNAEGLEKTQTTPNGSLQARRSSSLKVSGTKMGTHSVQNGTVRMGILNSDTLGNPTNVRNMSWLPNGYVTLRDNKQKEQAGELGQHNRLSTYDNVHQQFSMMNLDDKQSIDSATWSTSSCEISLPENSNSCRSSTTTCPEQDFFGGNFEDPVLDGPPQDDLSHPRDYESKSDHRSVGGRSSRATSSSDNSETFVGNSSSNHSALHSLVSSLKQEMTKQKIEYESRIKSLEQRNLTLETEMMSLHDELDQERKKFTMIEIKMRNAERAKEDAEKRNDMLQKEMEQFFSTFGELTVEPRRTERGNTIWIQ
binding [1]: binds | binding [2]: no binding
